Data as given in paper PMC7039881.
No constants are given. Whether binding was seen depends on the method and setting. Binding seen in cells or lysates may run through a third protein. For some assays here: Binding can be weak; no strength is given. Where a sequence is shown, tags or fusion partners need not be part of it.

Sequences of proteins named here, by UniProt entry; tags and fusion partners are left off. A change or cut given only in a name is not applied to a line headed by its entry.
UniProt Q96G97: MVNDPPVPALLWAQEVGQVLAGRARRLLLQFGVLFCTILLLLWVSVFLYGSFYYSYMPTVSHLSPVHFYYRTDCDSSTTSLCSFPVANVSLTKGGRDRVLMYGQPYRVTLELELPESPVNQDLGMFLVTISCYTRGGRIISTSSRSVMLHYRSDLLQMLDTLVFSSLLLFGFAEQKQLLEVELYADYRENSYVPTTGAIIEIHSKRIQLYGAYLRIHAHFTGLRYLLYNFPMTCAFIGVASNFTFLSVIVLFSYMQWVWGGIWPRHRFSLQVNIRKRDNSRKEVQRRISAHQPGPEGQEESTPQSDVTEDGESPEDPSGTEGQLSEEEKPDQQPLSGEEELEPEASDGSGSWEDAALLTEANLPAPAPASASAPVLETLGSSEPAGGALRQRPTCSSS

T1: FLAG-GPAT3 (human) (UniProt Q53EU6)
T1 sequence: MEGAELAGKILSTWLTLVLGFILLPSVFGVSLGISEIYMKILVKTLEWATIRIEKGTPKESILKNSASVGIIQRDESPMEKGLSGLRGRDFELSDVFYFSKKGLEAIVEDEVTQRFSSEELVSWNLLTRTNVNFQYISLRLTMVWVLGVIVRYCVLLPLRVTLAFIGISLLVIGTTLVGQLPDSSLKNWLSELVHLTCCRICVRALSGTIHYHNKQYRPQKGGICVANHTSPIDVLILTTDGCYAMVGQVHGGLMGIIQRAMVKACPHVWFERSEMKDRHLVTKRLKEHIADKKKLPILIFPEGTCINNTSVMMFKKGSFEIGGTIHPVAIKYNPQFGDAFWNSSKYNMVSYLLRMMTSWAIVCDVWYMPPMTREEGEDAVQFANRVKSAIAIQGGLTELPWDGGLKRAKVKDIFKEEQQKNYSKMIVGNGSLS


Tests used:
[1] = target: T1, FLAG-GPAT3 (human); assay: co-IP; HEK293 cells co-transfected, lysed 48 h later in ODG lysis buffer (50 mM n-octyl-β-D-glucopyranoside, 50 mM Tris pH 6.8, 150 mM NaCl, 1 mM EDTA); anti-FLAG-agarose beads 2 h at 4 °C, eluted with 3xFLAG peptide; immunoblot for FLAG and Myc
[2] = target: N-terminal FLAG-tagged seipin T78A (human) (UniProt Q96G97); assay: as above
[3] = target: FLAG-tagged human seipin, long form (L) (human); assay: as above
[4] = target: seipin-Yn (N-terminal fragment of YFP fused to the C terminus of seipin) (human) (UniProt Q96G97); assay: split reporter; BiFC in 3T3-L1 preadipocytes co-transfected at the induction of differentiation, fixed at day 3; temperature shift to form YFP
[5] = target: seipin-Yn (N-terminal fragment of YFP fused to the C terminus of seipin) (human) (UniProt Q96G97); assay: split reporter; BiFC of seipin and GPAT3 half-YFP fusions in HEK293 cells; 37 °C 4 h, 32 °C 20 h, 30 °C 2 h; fixed cells, YFP fluorescence
[6] = target: Yn-seipin (N-terminal fragment of YFP fused to the N terminus of seipin) (human) (UniProt Q96G97); assay: as above

binding [1] | binding [3] | binding [4] | binding [5] | binding [6] | Molecule | further results
binds |  |  |  |  | Myc-seipin lacking the N-terminus (ΔNT) (human) (domain or fragment) | 
binds |  |  |  |  | Myc-seipin lacking the C-terminus (ΔCT) (human) (domain or fragment) | 
 | binds |  |  |  | Myc-tagged human GPAT3 (GPAT3-Myc) (enzyme, UniProt Q53EU6 1-434) MEGAELAGKILSTWLTLVLGFILLPSVFGVSLGISEIYMKILVKTLEWATIRIEKGTPKESILKNSASVGIIQRDESPMEKGLSGLRGRDFELSDVFYFSKKGLEAIVEDEVTQRFSSEELVSWNLLTRTNVNFQYISLRLTMVWVLGVIVRYCVLLPLRVTLAFIGISLLVIGTTLVGQLPDSSLKNWLSELVHLTCCRICVRALSGTIHYHNKQYRPQKGGICVANHTSPIDVLILTTDGCYAMVGQVHGGLMGIIQRAMVKACPHVWFERSEMKDRHLVTKRLKEHIADKKKLPILIFPEGTCINNTSVMMFKKGSFEIGGTIHPVAIKYNPQFGDAFWNSSKYNMVSYLLRMMTSWAIVCDVWYMPPMTREEGEDAVQFANRVKSAIAIQGGLTELPWDGGLKRAKVKDIFKEEQQKNYSKMIVGNGSLS | binding [2]: binds
 |  | binds | binds | no binding | GPAT3-Yc (C-terminal fragment of YFP fused to the C terminus of GPAT3-Myc) (enzyme, UniProt Q53EU6 1-434) MEGAELAGKILSTWLTLVLGFILLPSVFGVSLGISEIYMKILVKTLEWATIRIEKGTPKESILKNSASVGIIQRDESPMEKGLSGLRGRDFELSDVFYFSKKGLEAIVEDEVTQRFSSEELVSWNLLTRTNVNFQYISLRLTMVWVLGVIVRYCVLLPLRVTLAFIGISLLVIGTTLVGQLPDSSLKNWLSELVHLTCCRICVRALSGTIHYHNKQYRPQKGGICVANHTSPIDVLILTTDGCYAMVGQVHGGLMGIIQRAMVKACPHVWFERSEMKDRHLVTKRLKEHIADKKKLPILIFPEGTCINNTSVMMFKKGSFEIGGTIHPVAIKYNPQFGDAFWNSSKYNMVSYLLRMMTSWAIVCDVWYMPPMTREEGEDAVQFANRVKSAIAIQGGLTELPWDGGLKRAKVKDIFKEEQQKNYSKMIVGNGSLS | 
 |  | no binding | no binding | no binding | Yc-GPAT3 (C-terminal fragment of YFP fused to the N terminus of GPAT3-Myc) (enzyme, UniProt Q53EU6 1-434) MEGAELAGKILSTWLTLVLGFILLPSVFGVSLGISEIYMKILVKTLEWATIRIEKGTPKESILKNSASVGIIQRDESPMEKGLSGLRGRDFELSDVFYFSKKGLEAIVEDEVTQRFSSEELVSWNLLTRTNVNFQYISLRLTMVWVLGVIVRYCVLLPLRVTLAFIGISLLVIGTTLVGQLPDSSLKNWLSELVHLTCCRICVRALSGTIHYHNKQYRPQKGGICVANHTSPIDVLILTTDGCYAMVGQVHGGLMGIIQRAMVKACPHVWFERSEMKDRHLVTKRLKEHIADKKKLPILIFPEGTCINNTSVMMFKKGSFEIGGTIHPVAIKYNPQFGDAFWNSSKYNMVSYLLRMMTSWAIVCDVWYMPPMTREEGEDAVQFANRVKSAIAIQGGLTELPWDGGLKRAKVKDIFKEEQQKNYSKMIVGNGSLS | 
 | binds |  |  |  | Myc-tagged human GPAT4 (GPAT4-Myc) (enzyme, UniProt Q86UL3 38-456) VSFGIRKLYMKSLLKIFAWATLRMERGAKEKNHQLYKPYTNGIIAKDPTSLEEEIKEIRRSGSSKALDNTPEFELSDIFYFCRKGMETIMDDEVTKRFSAEELESWNLLSRTNYNFQYISLRLTVLWGLGVLIRYCFLLPLRIALAFTGISLLVVGTTVVGYLPNGRFKEFMSKHVHLMCYRICVRALTAIITYHDRENRPRNGGICVANHTSPIDVIILASDGYYAMVGQVHGGLMGVIQRAMVKACPHVWFERSEVKDRHLVAKRLTEHVQDKSKLPILIFPEGTCINNTSVMMFKKGSFEIGATVYPVAIKYDPQFGDAFWNSSKYGMVTYLLRMMTSWAIVCSVWYLPPMTREADEDAVQFANRVKSAIARQGGLVDLLWDGGLKREKVKDTFKEEQQKLYSKMIVGNHKDRSRS | 
